Converted amounts (≈) assume the structure as drawn.
Tests used:
[1] = human, microsomes, 0.1 µM
[2] = Protein binding in human plasma at 10 uM after 4 hrs
physchem = conditions: buffer, pH 7.4
[3] = Half life in human liver microsomes at 0.1 uM

O=C(CN1CCCCC1)Nc1ccc2oc(-c3ccco3)nc2c1
CLH [1]: 630 µL/min/mg
PPB [2]: 83%
solubility at 24 h (physchem): 184 µM (≈ 59.9 µg/mL)
t1/2 [3]: 11 min
